Measured data: PubChem BioAssay AID743454 (Peter MacCallum Cancer Centre, 2014)
Test: 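Knock-downs lowering viability or raising caspase 3/7 activity in vorinostat-treated resistant cells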 (primary screen). System: human HCT116-VR colon cancer cells, selected for vorinostat resistance. Reagents: siRNA pool against human genes, 40 nM siRNA pool. Timing: vorinostat for 24 h, read-out about 72 h after transfection. Treatment: vorinostat at 2.5 µM final. Read-out: 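Cell viability by CellTiter-Fluor and caspase 3/7 activity by luminescence, each scaled to mock wells per plate, duplicates averaged, then robust z-scored over all plates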. Reading the numbers: viability robust z-score: higher = more viable cells than screen typical; caspase robust z-score: higher = more caspase 3/7 activity than screen typical. Rule for the call: 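a knock-down is a hit when classed RV1 or RV2 for lowered viability, or CA1 or CA2 for caspase activation; those lethal without drug were dropped; hits were retested singly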.
This is an unselected part of about 18,000 deposited reagents. 450 of all reagents (2.5%) count as active. 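Single biological run; no consistent viability z cut-off exists, so the class columns, not z-scores, define the calls.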

target gene	viability hit class	caspase hit class	viability robust z-score	caspase robust z-score	call
PXDC1	no change	no change	0.99	-0.85	inactive
ELOF1	no change	no change	-1.46	4.08	inactive
FAM81B	no change	no change	0.86	2.42	inactive
OR5B3	no change	no change	0.27	0.12	inactive
METTL15	no change	no change	0.69	-0.94	inactive
WDR7	no change	no change	-0.75	0.28	inactive
MAN1A1	no change	no change	1.48	0.38	inactive
PIEZO2	no change	no change	-1.36	-0.68	inactive
U2AF2	no change	no change	-2.72	-0.48	inactive
PRRC2C	no change	no change	1.22	-0.36	inactive
ABCG2	no change	no change	0.64	-0.58	inactive
BTNL3	no change	no change	-0.63	-0.13	inactive

An excerpt from above, reduced to “caspase hit class”.
METTL15 = no change
WDR7 = no change
MAN1A1 = no change
PIEZO2 = no change

Further reagents follow:
target gene	viability hit class	caspase hit class	viability robust z-score	caspase robust z-score	call
ZNF75A	no change	no change	-0.05	0.02	inactive
OR8J3	no change	no change	-0.32	-0.67	inactive
XCR1	no change	no change	-2.08	0.32	inactive
ANKRD34A	no change	no change	0.25	-0.44	inactive
RIC8B	no change	no change	-0.43	-0.02	inactive
IDS	no change	no change	-0.82	-0.84	inactive
COTL1	no change	no change	-2.1	0.66	inactive
ZDHHC15	no change	no change	0.5	-0.41	inactive
CEP128	no change	no change	1.48	-0.28	inactive
SH2D3C	no change	no change	-1.45	2.11	inactive
TSACC	no change	no change	0.96	1.8	inactive
